# Results reported in PMC7819943, “Rice protein-binding microarrays: a tool to detect cis-acting elements near promoter regions in rice”.
# Protein sequences, listed by entry. Tags and fused reporters are not part of them.
# UniProt Q0JBA9, entry or part of it: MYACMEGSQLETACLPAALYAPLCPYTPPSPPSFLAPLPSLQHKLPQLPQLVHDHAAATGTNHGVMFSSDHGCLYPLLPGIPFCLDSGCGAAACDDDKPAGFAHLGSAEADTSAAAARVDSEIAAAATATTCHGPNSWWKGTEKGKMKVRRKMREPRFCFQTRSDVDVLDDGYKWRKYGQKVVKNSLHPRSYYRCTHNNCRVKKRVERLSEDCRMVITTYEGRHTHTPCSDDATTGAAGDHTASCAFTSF
# Some of the results follow.
# Molecular target: OsWRKY34 (Oryza sativa, UniProt Q0JBA9 1-250)
# Assay: protein-binding microarray (RPBM); PBS, 2% BSA, 51.3 ng/ul salmon testes DNA, 50 uM zinc acetate, 200 nM TF, 25 C, 1 h; high values mean tight binding
# Settings: protein: recombinant; tags: N-terminal polyhistidine and DsRed monomer fusion (pET32a); label: CyDye5-dUTP incorporated in the synthesized complementary strand; 3' TTTTT single-stranded linker to array surface; dsDNA, one strand shown
# How it was run: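 Transcription factors were each fused at the N-terminus to a polyhistidine tag plus DsRed and expressed in E. coli BL21-CodonPlus before Ni–NTA purification. Binding to a double-stranded custom Agilent array was carried out with 200 nM protein at 25 °C for 1 h in PBS, 2% BSA, salmon testes DNA and 50 µM zinc acetate. The binding signal is per-feature fluorescence intensity, in arbitrary units, on an Axon 4000B scanner.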
row,Sequence,binding signal
1,TGGTTCTCGCTTTTCGCCGCTTCCTATCCGAAGTGCTTTTCGGAGTCACCTAGTGCAG,9080 fluorescence intensity (a.u.)
2,CTGCACCTAAAGCCTTTCAGAAAACTTTTCACCCTGTCAACGGAGTCACCTAGTGCAG,8740 fluorescence intensity (a.u.)
3,TACACTCACTACCAATCCACTACTCTCTTTCTCTTATTTCCGGAGTCACCTAGTGCAG,8770 fluorescence intensity (a.u.)
4,TGGTGGTGCTAATGTGCTTTTTTGTGGGTGGCTGCATTACCGGAGTCACCTAGTGCAG,8190 fluorescence intensity (a.u.)
5,GTAGCATTCGTTTTTTTTTTTCTTTTGTTCTTTCAAAAATCGGAGTCACCTAGTGCAG,10400 fluorescence intensity (a.u.)
6,TCCGTACCGTTTTCACCCCTACCTGTTAGATGTTGCATAACGGAGTCACCTAGTGCAG,10500 fluorescence intensity (a.u.)
7,ATCTTTTTATCGTTTCATTGATTGATGACGACTCCAAGTTCGGAGTCACCTAGTGCAG,8600 fluorescence intensity (a.u.)
8,AATTTAGGCTATTTTGGCTTCAATCCAAACACAATTTTTCCGGAGTCACCTAGTGCAG,10100 fluorescence intensity (a.u.)
9,GGAGGGAGGGATAGCGTAGAGGGAGAGGGAACAGGGGAGGCGGAGTCACCTAGTGCAG,8640 fluorescence intensity (a.u.)
10,GTGTATTTGTTTCTTTGTCAGCTTGTACATGAATACCGGCCGGAGTCACCTAGTGCAG,10800 fluorescence intensity (a.u.)
11,ACAATTGCCTATTATCTGGTCCCACATGTCATGCACACATCGGAGTCACCTAGTGCAG,8620 fluorescence intensity (a.u.)
12,ATCCTCGGCCTCCGTCTTCCCTCGGCAAGGTTTTCATCCACGGAGTCACCTAGTGCAG,8740 fluorescence intensity (a.u.)
13,GATTTATTGTACTATAATATATCACATCTAGTTGGTTTTTCGGAGTCACCTAGTGCAG,8130 fluorescence intensity (a.u.)
14,TCTCTCTTCTCTTCTCTCATCACTCACCATCTTCTTGTCTCGGAGTCACCTAGTGCAG,8370 fluorescence intensity (a.u.)
15,CCTCTCATCGCCGCGGTTTCTTTCCCGTTGTTGTGAAAAGCGGAGTCACCTAGTGCAG,9570 fluorescence intensity (a.u.)
16,CCGGCTCCGGCTCATCTCCACCTCCTCCCGCCGCGCCAGCCGGAGTCACCTAGTGCAG,8300 fluorescence intensity (a.u.)
17,TATTTCACCACATCGTTTTTTTCTTTTTGTCAAAGGGCATCGGAGTCACCTAGTGCAG,8680 fluorescence intensity (a.u.)
18,AAGTGATGCAGCGAAAGGAATTGGTGGGGAGGAGAAACTGCGGAGTCACCTAGTGCAG,8140 fluorescence intensity (a.u.)
19,CGCACGGCCGCTACATGCCCACGTCGTTCTCGCCTCGCTACGGAGTCACCTAGTGCAG,8780 fluorescence intensity (a.u.)
20,CTGATGGTGTTGGTGATGGTGGTGCGGGTGCGGCAGTTGACGGAGTCACCTAGTGCAG,13200 fluorescence intensity (a.u.)
21,GCCGGTGGCGCATGGTGATCTTTACTCCCGGTTAGTGTTACGGAGTCACCTAGTGCAG,8280 fluorescence intensity (a.u.)
22,GAACGGTAGAATGATTATTGCTCCTTCAGTTTTCGAGTAACGGAGTCACCTAGTGCAG,9810 fluorescence intensity (a.u.)
23,AACTAATCTTCCTCTCTCATCTCAGTTCTGTTCCTTGTTTCGGAGTCACCTAGTGCAG,9230 fluorescence intensity (a.u.)
24,AGTATGCTTTTGTGTTGCAACTTGTTTATACATATACTCCCGGAGTCACCTAGTGCAG,14700 fluorescence intensity (a.u.)
25,CTCCCTTTTCCTTTACTATTTCTTTTCTCTTGGCTAGAGTCGGAGTCACCTAGTGCAG,8350 fluorescence intensity (a.u.)
26,ATTACTTACCCCGTTCTATACTTCAACTTTCTCGTTTTCCCGGAGTCACCTAGTGCAG,9490 fluorescence intensity (a.u.)
27,TCCCTTGTCGAGAGCTTGTCAAATTTCTGCAGATCTGTTTCGGAGTCACCTAGTGCAG,9480 fluorescence intensity (a.u.)

# Some of the entries so far, with bars between the fields:
row | Sequence | binding signal
24 | AGTATGCTTTTGTGTTGCAACTTGTTTATACATATACTCCCGGAGTCACCTAGTGCAG | 14700 fluorescence intensity (a.u.)
25 | CTCCCTTTTCCTTTACTATTTCTTTTCTCTTGGCTAGAGTCGGAGTCACCTAGTGCAG | 8350 fluorescence intensity (a.u.)
26 | ATTACTTACCCCGTTCTATACTTCAACTTTCTCGTTTTCCCGGAGTCACCTAGTGCAG | 9490 fluorescence intensity (a.u.)

# Remaining list, next part

row,Sequence,binding signal
1,GGCTGGGCTTTTTGGGCTTTCTTTGATCTATATTTTGAGACGGAGTCACCTAGTGCAG,18200 fluorescence intensity (a.u.)
2,TTCCGATTCCCATCTCTCAGCCAGTTTTCTTGGAGAAGAACGGAGTCACCTAGTGCAG,8140 fluorescence intensity (a.u.)
3,GCCTCCATCGATGGATCAGAATTCAGATACAACTCACTTCCGGAGTCACCTAGTGCAG,8250 fluorescence intensity (a.u.)
4,GGGTTTTTCTCCCCGCCTCGCTGCTTCGCCTCTCGTTCCCCGGAGTCACCTAGTGCAG,10700 fluorescence intensity (a.u.)
5,AATAACAGTAGCCACTTGCCCCACACCTCTGCCGGCGGTTCGGAGTCACCTAGTGCAG,9400 fluorescence intensity (a.u.)
6,CTTACCTGATGATATATTTGTCCGTCACATTGCAAAATTCCGGAGTCACCTAGTGCAG,11000 fluorescence intensity (a.u.)
7,ATTGAGGTTATTCTTTTTCCTACCACAATTTTACTTCAATCGGAGTCACCTAGTGCAG,8440 fluorescence intensity (a.u.)
8,CTCTCTCTCTCTCTCTCTCTCTCTCTTTCTCTCTCTCTCTCGGAGTCACCTAGTGCAG,13700 fluorescence intensity (a.u.)
9,GAGGGGTGTTCGATACCTGGTTTTGAAGTTTGAGGTTTGACGGAGTCACCTAGTGCAG,10700 fluorescence intensity (a.u.)
10,CTGTGTAATTAGTGTTTTATATTATCTATATTTAATATTTCGGAGTCACCTAGTGCAG,8850 fluorescence intensity (a.u.)
11,GCGCAGTTGGTTGGGTCGTGCGGCTACTTGGCTTGGTTGGCGGAGTCACCTAGTGCAG,9210 fluorescence intensity (a.u.)
12,CACGCCCGCCGCGCGGCCCACCTCCGCCTTTATGACCGATCGGAGTCACCTAGTGCAG,9890 fluorescence intensity (a.u.)
13,CAAACATGTGCTAAAAAGTCAACGGTGTCAACCATTTTGACGGAGTCACCTAGTGCAG,11600 fluorescence intensity (a.u.)
14,CTCTCCGGTGCGCCGCATCACGAATCGCCCCGAAATCGCCCGGAGTCACCTAGTGCAG,8820 fluorescence intensity (a.u.)
15,TTCCTTTGCTTCATGCTTGCATCTGTGTTTCTCTGTCAATCGGAGTCACCTAGTGCAG,11800 fluorescence intensity (a.u.)
16,CACCATCCATCCATCCATCCATCGTCTCATCCTACCACAGCGGAGTCACCTAGTGCAG,9390 fluorescence intensity (a.u.)
17,CGGCCTGAGGACTAACACCACCTTTGCTCTATCTCGTTTTCGGAGTCACCTAGTGCAG,9520 fluorescence intensity (a.u.)
18,TTTTGTTGTGTTTGTTCATAGTGGGATGATTCGAAATCTCCGGAGTCACCTAGTGCAG,8960 fluorescence intensity (a.u.)
19,TTTCATCTCTTCGCAAACCAGCCTTTTTTCCTTTGTCTTTCGGAGTCACCTAGTGCAG,12000 fluorescence intensity (a.u.)
20,TTCTTACTTCTTACCGTTTGGAGTGGGCTTACCGCCACCCCGGAGTCACCTAGTGCAG,9290 fluorescence intensity (a.u.)
21,CTCCTGCTTTGCTCGTATTCTTTTTCTATATAGTATATACCGGAGTCACCTAGTGCAG,8250 fluorescence intensity (a.u.)
22,ATATATATATATATATATATATATATATATATATATCTGTCGGAGTCACCTAGTGCAG,8320 fluorescence intensity (a.u.)
23,AGGGGAGGAGGAGGCGCGGCGGAGGATGCCGGCGAGGAGGCGGAGTCACCTAGTGCAG,8580 fluorescence intensity (a.u.)
24,AGCTTTTTTGTAAAATTGTTAAGTATGTGTATCTATGTAGCGGAGTCACCTAGTGCAG,8500 fluorescence intensity (a.u.)
25,CTCTCTCTTATCTTCTCTCTTTCACGTCTCTTTCACATGTCGGAGTCACCTAGTGCAG,9670 fluorescence intensity (a.u.)
26,TATGGACTTACTCCACTAGCATACTACACCTTATGAGCCACGGAGTCACCTAGTGCAG,9290 fluorescence intensity (a.u.)
27,GTCTGGTTTTGCTACTGGTTCGTCACCTCTTCTCGACGCCCGGAGTCACCTAGTGCAG,13100 fluorescence intensity (a.u.)
